Results published in patent publication US8080688B2, “3, 4-disubstituted phenoxyphenylamidines and use thereof as fungicides” (Bayer Cropscience AG, priority 2007, dated 2011).
Some of these results come from one statement about several compounds together.

How the values were obtained:
Format in all cases: in vivo
[1] = test system: bean rust pathogen Uromyces appendiculatus; test: Uromyces test (bean)/protective; conditions: protective spray, active compound concentration 10 ppm, evaluation 10 days after inoculation
[2] = test system: Erysiphe graminis f. sp. hordei; test: Erysiphe test (barley)/protective; conditions: barley plants, protective spray, active compound concentration 1000 ppm, evaluation 7 days after inoculation
Sphaerotheca fuliginea = test: Sphaerotheca test (cucumber)/protective; conditions: cucumber plants, protective spray, active compound concentration 100 ppm, evaluation 7 days after inoculation
Alternaria solani = test: Alternaria test (tomato)/protective; conditions: tomato plants, protective spray, active compound concentration 500 ppm, evaluation 7 days after inoculation

Measured: efficacy

CCN(C)C=Nc1cc(C)c(Oc2ccc3c(c2)CCCC3)cc1C [Compound 13, N-Ethyl-N-methyl-N′-[4-(5,6,7,8-tetrahydro-2-naphthoxy)-2,5-dimethylphenyl]formamidine]
≥ 70%: all assays above
